# Results from US12493037B2, “Use of an integrated microfluidic chip for analysis of cell motility and prediction and prognosis of patient survival” (The Johns Hopkins University, priority 2015, dated 2025).
# Entries after “also recorded” stand apart in the source; their conditions may differ. At least one structure is not confirmed: it was looked up by name or label, or the drawing left a doubt.
# Tested on: MDA-MB-231 cells
# Assay: Spontaneous cell migration and contact guidance in 200 μm-long Y-shaped microchannels with PI3K inhibition
# Type: cell-based, human
# Details: 10 μM LY294002, 200 μm-long microchannels
smiles,measurement,value
O=c1cc(N2CCOCC2)oc2c(-c3ccccc3)cccc12 [LY294002],average cell speed vs. control,same average speed; also recorded: the same
same,chemotactic index vs. control,higher chemotactic index; also recorded: greater
